Data as given in PMC8933280.
No constants are given. Whether binding was seen depends on the method and setting. Binding seen in cells or lysates may run through a third protein. Some binding calls cover weakened binding; strength is not graded here.

Sequences of proteins named here, by UniProt entry; tags and fusion partners are left off. A change or cut given only in a name is not applied to a line headed by its entry. Residues count along the entry.
UniProt Q16659: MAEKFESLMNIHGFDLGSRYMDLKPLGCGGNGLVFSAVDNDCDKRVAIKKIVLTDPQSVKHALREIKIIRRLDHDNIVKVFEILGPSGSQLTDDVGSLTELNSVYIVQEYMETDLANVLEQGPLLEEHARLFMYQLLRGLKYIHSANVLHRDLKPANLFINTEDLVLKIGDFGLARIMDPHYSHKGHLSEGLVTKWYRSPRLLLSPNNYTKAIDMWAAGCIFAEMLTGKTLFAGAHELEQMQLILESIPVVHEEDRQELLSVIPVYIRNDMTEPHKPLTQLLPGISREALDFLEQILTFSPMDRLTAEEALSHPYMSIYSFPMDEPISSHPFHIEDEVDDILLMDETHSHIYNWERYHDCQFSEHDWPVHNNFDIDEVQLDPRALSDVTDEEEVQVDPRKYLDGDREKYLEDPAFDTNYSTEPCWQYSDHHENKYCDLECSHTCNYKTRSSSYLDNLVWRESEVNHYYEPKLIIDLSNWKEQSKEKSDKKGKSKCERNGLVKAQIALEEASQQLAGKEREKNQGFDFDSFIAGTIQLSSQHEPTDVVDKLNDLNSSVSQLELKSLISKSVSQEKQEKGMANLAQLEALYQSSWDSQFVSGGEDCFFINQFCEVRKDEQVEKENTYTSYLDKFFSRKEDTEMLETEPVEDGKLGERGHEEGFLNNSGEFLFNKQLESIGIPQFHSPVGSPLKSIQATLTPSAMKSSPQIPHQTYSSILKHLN
Erk3(1-340): residues 1-340 of Q16659
Erk3(341-721): residues 341-721 of Q16659
UniProt Q91UZ4: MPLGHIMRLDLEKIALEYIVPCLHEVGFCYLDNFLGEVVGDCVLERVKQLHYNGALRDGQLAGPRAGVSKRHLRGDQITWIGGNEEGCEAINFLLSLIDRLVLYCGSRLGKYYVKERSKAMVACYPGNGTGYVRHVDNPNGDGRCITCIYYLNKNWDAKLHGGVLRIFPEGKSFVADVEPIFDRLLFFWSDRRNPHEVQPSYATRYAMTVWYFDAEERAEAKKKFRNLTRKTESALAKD
UniProt P11142: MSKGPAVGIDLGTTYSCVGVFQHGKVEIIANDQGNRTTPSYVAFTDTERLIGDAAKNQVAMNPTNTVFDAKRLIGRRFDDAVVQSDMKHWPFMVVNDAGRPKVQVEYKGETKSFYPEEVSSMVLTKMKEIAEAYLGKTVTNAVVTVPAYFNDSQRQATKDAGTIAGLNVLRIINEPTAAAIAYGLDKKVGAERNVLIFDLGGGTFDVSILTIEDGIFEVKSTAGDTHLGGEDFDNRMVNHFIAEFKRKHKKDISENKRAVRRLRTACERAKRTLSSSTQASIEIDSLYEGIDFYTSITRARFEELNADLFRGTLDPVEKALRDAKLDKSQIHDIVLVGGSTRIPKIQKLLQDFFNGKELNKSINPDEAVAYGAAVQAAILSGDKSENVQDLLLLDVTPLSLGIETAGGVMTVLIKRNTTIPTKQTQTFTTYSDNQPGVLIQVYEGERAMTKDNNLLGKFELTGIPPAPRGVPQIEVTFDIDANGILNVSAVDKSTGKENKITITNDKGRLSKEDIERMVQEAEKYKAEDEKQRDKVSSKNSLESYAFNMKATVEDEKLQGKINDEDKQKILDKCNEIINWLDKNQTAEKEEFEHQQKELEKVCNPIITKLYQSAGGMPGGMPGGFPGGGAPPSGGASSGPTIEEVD

Columns and labels:
[1] = biological target: Erk3(P25A), hydroxylation-resistant mutant (UniProt Q16659); test: pull-down; GST pull-down: lysates of transfected HEK293T cells (300-700 ug) in NETN buffer with Glutathione-Sepharose 4B beads; immunoblot
[2] = biological target: GST-Erk3, full-length (pEBG) (UniProt Q16659); test: as above
[3] = biological target: Erk3(P25A), hydroxylation-resistant mutant (UniProt Q16659); test: co-IP; lysates of transfected HEK293T cells; antibody (anti-Flag or control mouse IgG) with Protein A/G agarose overnight; immunoblot (anti-myc, anti-HA)
[4] = biological target: Flag-tagged Erk3 (extracellular signal-regulated kinase 3), full-length (UniProt Q16659); test: as above
[5] = biological target: GST-EGLN3, full-length (mouse) (UniProt Q91UZ4); test: pull-down; GST pull-down: lysates of transfected HEK293T cells (300-700 ug) in NETN buffer with Glutathione-Sepharose 4B beads; immunoblot
Erk3(1-340) = Erk3(1-340) (UniProt Q16659); test: pull-down; GST pull-down from HEK293T cells co-transfected with Erk3 or a fragment, HSC70 or LAMP2A, and EGLN1, EGLN2, EGLN3 or R205K; DMOG in Fig. 4D and 4I
Erk3(341-721) = Erk3(341-721) (UniProt Q16659); test: as above
[6] = biological target: GST-Erk3, full-length (pEBG) (UniProt Q16659); test: as above

Measured: binding

EGLN3 R205K, hydroxylase-inactive mutant (from UniProt Q91UZ4 1-239) (enzyme)
binds: [1] | [2] | [3] | [4]

Flag-tagged Erk3 (extracellular signal-regulated kinase 3), full-length (from UniProt Q16659 1-721)
binds: [5]

EGLN3, wild-type (from UniProt Q91UZ4 1-239) (enzyme)
binds: [1] | [2] | [3] | [4]

heat shock cognate protein of 70 kDa (HSC70) (from UniProt P11142 1-646)
not listed: [3] | [5]
binds: all other assays above
